In one assay the target is T1, MIER2 (UniProt Q8N344).
T1 sequence: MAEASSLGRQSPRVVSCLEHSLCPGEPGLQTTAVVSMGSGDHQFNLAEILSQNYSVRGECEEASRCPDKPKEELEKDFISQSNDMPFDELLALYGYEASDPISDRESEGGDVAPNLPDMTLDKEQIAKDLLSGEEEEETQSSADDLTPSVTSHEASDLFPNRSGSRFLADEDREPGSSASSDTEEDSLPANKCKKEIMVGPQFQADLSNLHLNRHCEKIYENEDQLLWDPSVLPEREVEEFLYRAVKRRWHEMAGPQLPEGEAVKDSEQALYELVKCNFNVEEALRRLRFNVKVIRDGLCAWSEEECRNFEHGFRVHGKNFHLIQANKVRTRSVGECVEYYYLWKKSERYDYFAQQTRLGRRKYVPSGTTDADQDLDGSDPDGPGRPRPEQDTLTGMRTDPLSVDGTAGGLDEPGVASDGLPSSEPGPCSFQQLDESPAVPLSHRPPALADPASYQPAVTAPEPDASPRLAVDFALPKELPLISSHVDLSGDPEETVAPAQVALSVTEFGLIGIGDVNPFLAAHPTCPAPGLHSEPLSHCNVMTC
Description: co-IP; HEK293 cells co-transfected with a myc-tagged and a flag-tagged protein; lysis in 1% Triton X-100, 150 mM NaCl, 20 mM Tris-Cl pH 7.5, 1 mM EDTA; IP with 9E10 anti-myc overnight at 4°C; Western with anti-flag.

For a further assay, the target named is MIER1α (human). Described as above.

Results are given in words; binding and its absence hold for the method and conditions named. In cells and extracts the contact can be indirect.

For MIER1α (human), the binding result with MIER2 is listed as “no binding”.

B1: MIER2 (protein, UniProt Q8N344 1-545)
chain: T1 sequence
In the case of B1, the binding entry in the assay with MIER1α (human) is recorded as “no binding”.

Values taken from article PMC5207708.
